From PubChem BioAssay AID2685 (National Center for Advancing Translational Sciences (NCATS), 2010) come the findings set out here.

A short description of the assay: qHTS Assay for Lipid Storage Modulators in Drosophila S3 Cells.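 As to cell number change: cells counted by Cell Tracker Red CMTPX staining in the red channel.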 To be noted: BODIPY lipid droplet fluorescence, 18-24 h; for cell number change: measured here: cell count max response, cells fed with added oleic acid. In outline:
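Laser-scanning cytometry quantifies lipid droplet accumulation (500–530 nm total intensity; droplet/cell object ratio) in oleic acid-fed (400 uM added) Drosophila S3 cells treated with a concentration series. 20 uM Triacsin C defined 100% inhibition.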
A general note: In qHTS, concentration-response curves come from the screen itself.

Where [1] appears, read: measured here: lipid fluorescence (Fed channel) AC50, cells fed with added oleic acid.
[2] abbreviates: measured here: cell number channel AC50, cells fed with added oleic acid.

The list shows a part of the results. These are further read-outs of the screen, such as a control signal, another cell line or another target. No call is given for them. Compounds called inactive in the main read-out are mostly missing here. Potencies come from curve fits of mixed quality, noted in brackets.

As to `O=C(N/N=C/c1ccco1)c1cc(-c2ccc(Br)s2)[nH]n1`, the cell number change is -18.2%. Moreover, under setting [1], the AC50 (in general, the concentration giving half of the maximal activity seen) was 4.11 µM [falling, full curve]. For `Cn1cnnc1SCC(=O)c1ccc2c(c1)OCO2`, under setting [1], the concentration at half-maximal activity (AC50) was 2.31 µM [rising, partial curve, poor fit]. With `Cc1ccc(S(=O)(=O)N[C@@H](Cc2ccccc2)C(=O)CCl)cc1`, the cell number change is -38.2%. Also, the half-maximal activity concentration (AC50) under setting [2] was 16.4 µM [falling, single point]. In addition, under setting [1], the AC50 was 1.64 µM [falling, partial curve].

Take `O=C1c2ccccc2NC(c2ccc(-c3cccc(Cl)c3)o2)N1O` (configuration not stated): the cell number change was -15.3%. On to `CC(Nc1ncnc2sccc12)c1ccccc1` (configuration not stated), for which the cell number change came to 10.8%. Also, the AC50 under setting [1] is 0.82 µM [falling, full curve]. In the case of `CC(C)c1nc(SCC(=O)Nc2nccs2)c2ccccc2n1`, the cell number change was -16.7%. The AC50 under setting [1] is 29.1 µM [falling, single point]. Take `O=C1c2ccccc2C(=O)N1CC(=O)N1c2ccccc2CCc2ccccc21`: the cell number change came out at 163%. With `Cc1ccc(NC(=O)CN2C(=O)S/C(=C\c3ccc(C(=O)O)cc3)C2=O)cc1`, the cell number change worked out at 10.3%. Besides, under setting [1], the AC50 is 8.2 µM [rising, partial curve]. `COc1ccc(CCNC(=O)c2cccc(S(=O)(=O)N3CCc4ccccc4C3)c2)cc1`: the cell number change was found to be 30.3%. In addition, the AC50 under setting [2] was 14.6 µM [rising, single point]. The AC50 under setting [1] was 4.11 µM [rising, partial curve, poor fit]. `O=C1c2ccccc2COc2ccc(O)cc21`: the cell number change came out at 8.89%. Further, the AC50 under setting [1] was 0.0731 µM [falling, full curve, poor fit]. `O=C(Nc1ccccc1N1CCOCC1)c1ccccc1NS(=O)(=O)c1ccc(F)cc1`: the cell number change is 34.7%. The AC50 under setting [2] is 3.26 µM [rising, partial curve]. Further, the concentration at half-maximal activity (AC50) under setting [1] was 3.26 µM [rising, partial curve]. Regarding `CN(c1c(C#N)c(C(F)(F)F)nn1C)N(S(C)(=O)=O)S(C)(=O)=O`, the cell number change was -17.9%. The AC50 under setting [2] was 0.00461 µM [falling, full curve, poor fit]. Under setting [1], the AC50 was 23.1 µM [falling, single point]. For `CC(C)(C)OC(=O)NCCCC[C@@H](C(=O)NCCCCCCCCCCC(=O)N1CCN(C(=O)OC(C)(C)C)CC1)n1cc(CCCC(=O)O)nn1`, the cell number change worked out at 11.6%. Under setting [2], the AC50 was 5.8 µM [falling, single point].

In the case of `COc1ccc(-c2c(=O)n(OC)c3ccccc3[n+]2[O-])cc1OC`, the cell number change was found to be 22.5%.

For the compound `Cc1cccc(C)c1NC(=O)C1NC(=O)CC1c1ccccc1` (configuration not stated), the cell number change amounted to 3.54%. In addition, the AC50 under setting [1] is 6.51 µM [falling, single point].

Regarding `COc1ccccc1C(=O)N(NC(=O)Oc1ccccc1)C(C)(C)C`, the cell number change was determined as 50%. In addition, the concentration at half-maximal activity (AC50) under setting [2] is 16.4 µM [rising, single point].

For `O=C(CSc1ccccc1Cl)N1CCOCC1`, the cell number change was determined as 21.5%. Further, the half-maximal activity concentration (AC50) under setting [1] was 14.6 µM [rising, partial curve, poor fit]. In the case of `Cc1c(OCC(=O)N[C@@H](CSCc2ccccc2)C(=O)O)ccc2c3c(c(=O)oc12)CCC3`, the cell number change was 35%. Take `CC(=O)Nc1ccc(S(=O)(=O)NNC(=O)CCC(=O)Nc2cc(C)ccc2C)cc1`: under setting [1], the concentration at half-maximal activity (AC50) was 1.03 µM [falling, full curve, poor fit]. Take `COc1ccc(-n2nc(C(=O)NCC(=O)Nc3ccc(F)cc3)c3ccccc3c2=O)cc1`: the cell number change worked out at 46.4%. In addition, under setting [2], the AC50 was 18.4 µM [rising, single point]. Besides, under setting [1], the AC50 was 6.51 µM [rising, single point].

`CCN(CC)c1ncnc2scc(C3COc4ccccc4O3)c12` (configuration not stated): the cell number change was -30.3%. The AC50 under setting [2] was 8.2 µM [falling, partial curve, poor fit]. The concentration at half-maximal activity (AC50) under setting [1] is 14.6 µM [falling, partial curve, poor fit]. As for `Cc1ccc(-c2nc3c(c(=O)c4ccccc4n3C)c(=O)n2-c2ccccc2)cc1`, the cell number change was -0.235%.

For the compound `COc1ccc(/C(C)=N/NC(=O)CNC(=O)c2ccncc2)c(OC)c1`, the cell number change was -8.96%. Also, the AC50 under setting [1] was 6.51 µM [falling, partial curve, poor fit]. Regarding `Cc1cc(C)c[n+](CC(=O)c2c(C)cc(C)c([N+](=O)[O-])c2C)c1`, the cell number change was -9.12%. As for `Cc1cc(NC(=O)C2CC(c3ccccc3Cl)=NO2)no1` (configuration not stated), the cell number change is -2.81%. Further, the half-maximal activity concentration (AC50) under setting [1] was 0.00461 µM [falling, full curve, poor fit]. Regarding `COc1ccc(CNC(=O)Nc2cccc(C)c2)cc1`, the cell number change was 12.7%. Further, under setting [1], the AC50 was 6.51 µM [rising, partial curve]. As for `CN1CCN(c2ccc(C(=O)c3ccccc3)cc2[N+](=O)[O-])CC1`, the cell number change came to 12.7%. With `Cc1ccc(NC(=O)C(C)N2C(=O)c3ccccc3S2(=O)=O)cc1Cl` (configuration not stated), the AC50 under setting [1] was 10.3 µM [rising, partial curve]. As for `N#CC1=C(N)OC2=C(CN(Cc3ccccc3)C/C2=C\c2cccnc2)C1c1cccnc1` (configuration not stated), the half-maximal activity concentration (AC50) is, setting by setting: under setting [2], 1.3 µM [rising, full curve, poor fit]; under setting [1], 0.231 µM [rising, full curve, poor fit]. Take `Cc1ccc(-n2c(Cc3cccn3C)nnc2SCC(=O)NCc2ccc3c(c2)OCO3)cc1`: the cell number change was determined as 35.4%. The AC50 under setting [2] is 2.06 µM [rising, full curve]. Moreover, the AC50 under setting [1] is 0.731 µM [rising, full curve, poor fit]. Turning to `CCOc1ccc(CSCCNC(=S)Nc2ccc(OC)cc2)cc1`, the cell number change is 2.45%. Still for that read-out and setting: for `Cc1noc(C)c1COc1ccc(C(=O)OCC(=O)NC23CC4CC(CC(C4)C2)C3)cc1` the value was 2.55%.

Regarding `Cc1cc([N+](=O)[O-])nn1CC(=O)N1CCN(Cc2ccccc2)CC1`, the cell number change turned out to be 30%. Also, the AC50 under setting [1] was 29.1 µM [rising, single point]. As for `Cc1cccc(NS(=O)(=O)c2cccc(C(=O)N3CCCCCCC3)c2)c1`, the cell number change was -43.7%. Also, under setting [2], the AC50 was 23.1 µM [falling, partial curve]. The AC50 under setting [1] is 5.8 µM [falling, single point]. Regarding `COc1ccc(NC(=O)c2ccc3c(c2)NC(=O)CS3)cc1`, the cell number change turned out to be 40.7%. The AC50 under setting [2] is 29.1 µM [rising, single point].

As to `Cc1ccc(S(=O)(=O)N2CCC(=O)N(C(COCc3cccc(Cl)c3)C(C)C)CC2)cc1` (configuration not stated), the cell number change was determined as 0.924%. Moreover, under setting [1], the half-maximal activity concentration (AC50) was 18.4 µM [rising, single point].

With `CN(C)c1ccccc1C(=O)c1ccccc1N(C)C`, the cell number change was 2.8%. Consider `O=C(CCN1C(=O)/C(=C\c2ccccc2)SC1=S)NNC(=O)c1ccncc1`, for which the cell number change was determined as 27.7%. In addition, the concentration at half-maximal activity (AC50) under setting [1] is 0.731 µM [rising, full curve, poor fit].

As to `O=C(CN(C(=O)CNS(=O)(=O)c1ccc(F)cc1)c1ccccc1F)NCc1ccco1`, the cell number change is 2.56%. As to `CCOC(=O)C1=C(CSCC(=O)OC)NC(=O)NC1c1cc(C)ccc1C` (configuration not stated), the cell number change turned out to be 31.7%. Moreover, the half-maximal activity concentration (AC50) under setting [2] is 6.51 µM [rising, partial curve]. Besides, the AC50 under setting [1] is 14.6 µM [rising, partial curve]. On to `Cc1noc(C)c1COc1cccc(C(=O)NCc2ccccc2Cl)c1`, for which the cell number change is 4.08%.

For `CN1CC(c2ccc(C#N)cc2)C2(COc3ccccc3C2=O)C12C(=O)Nc1ccccc12` (configuration not stated), the cell number change turned out to be 10.7%. Under setting [1], the half-maximal activity concentration (AC50) was 29.1 µM [rising, single point]. In the case of `Cc1nc2ccc(NS(=O)(=O)c3ccc(F)c(C)c3)cc2[nH]1`, the cell number change was -57.9%. The AC50 under setting [2] was 16.4 µM [falling, partial curve]. Besides, the AC50 under setting [1] was 2.31 µM [falling, full curve]. Take `COC(=O)C1=NN(c2ccccc2OC)C2C(=O)N(c3ccccc3OC)C(=O)C12` (configuration not stated): the cell number change was -24%. Also, the AC50 under setting [2] is 0.731 µM [falling, full curve, poor fit]. Further, under setting [1], the AC50 was 0.0058 µM [falling, full curve, poor fit]. In the case of `CC1(C)CC(=O)C(C=Nc2cccc(/N=C/C3=C(O)CC(C)(C)CC3=O)n2)=C(O)C1`, the cell number change was determined as 11.8%. The AC50 under setting [1] is 0.00651 µM [falling, full curve, poor fit]. For `COc1ccc(N(CC(=O)NCc2cccs2)S(=O)(=O)c2ccc(F)cc2)cc1`, the cell number change is -6.33%. Moreover, the AC50 under setting [1] was 1.46 µM [falling, partial curve]. For `Cc1ccsc1C(=O)N1CCc2ccccc2C1`, the cell number change was determined as 4.91%.

With `COC(=O)c1ccc(COC(=O)CCc2nc(-c3ccccc3)c(-c3ccccc3)o2)cc1`, the cell number change amounted to 10.4%.

On to `COc1ccc(COC(=O)C2=C(C)NC(=O)NC2c2ccc(OC)cc2)cc1` (configuration not stated), for which the cell number change was -1.09%. Besides, under setting [1], the half-maximal activity concentration (AC50) was 0.731 µM [rising, single point]. For `CN(C(=O)c1ccc(NC(=O)Cc2cccc(NC(=O)C3CCN(C(=O)c4ccccc4)CC3)c2)cc1)C1CCCC1`, the cell number change is -20.2%. Further, the concentration at half-maximal activity (AC50) under setting [1] was 0.58 µM [falling, single point]. As for `CC(=O)NCCOc1nc(N(C)C)nc(N(C)C)n1`, under setting [1], the AC50 is 3.26 µM [falling, single point]. `NC(=S)N/N=C/c1ccccc1OCc1cccc(Cl)c1`: the cell number change was -7.71%. Take `CN1CCOc2ccc(S(=O)(=O)N3CCN(S(=O)(=O)c4c(F)cccc4F)CC3)cc21`: the cell number change was 30.5%. Further, the AC50 under setting [2] is 6.51 µM [rising, partial curve]. Under setting [1], the AC50 is 5.17 µM [rising, partial curve]. Regarding `C=CCN(CC=C)C(=O)c1cc(Cl)ccc1[N+](=O)[O-]`, the cell number change turned out to be 7.9%. Under setting [1], the half-maximal activity concentration (AC50) is 29.1 µM [rising, single point]. For `CCN(CC)c1ccc2cc(-c3nnc(-c4ccncc4)o3)c(=O)oc2c1`, the cell number change worked out at 129%. Further, the AC50 under setting [2] is 18.4 µM [rising, single point]. Besides, the AC50 under setting [1] was 0.58 µM [rising, single point]. On to `CCN(CC)CCNC(=O)C1CCN(S(=O)(=O)c2c(C)noc2/C=C/c2ccccc2F)CC1`, for which the cell number change amounted to 19.3%. In addition, under setting [1], the concentration at half-maximal activity (AC50) is 1.46 µM [rising, full curve]. With `CCn1c(=O)c2sccc2n(Cc2ccccc2)c1=O`, the cell number change is -5.49%. In addition, the AC50 under setting [1] is 0.651 µM [falling, full curve]. With `O=C(O)c1cccc(Cn2cc(Cl)cn2)c1`, the cell number change was -9.75%. Same read-out and setting: the figure for `COC(=O)CN1C(=O)[C@H]2[C@@H](C3CC3)N3C(=O)CN(CCO)C(=O)[C@@]3(Cc3ccccc3)[C@H]2C1=O` is -8.41%. `O=C(COc1c(CO)cc(Br)cc1CO)NC1CCCc2ccccc21` (configuration not stated): the cell number change stood at 19.3%. Also, under setting [1], the half-maximal activity concentration (AC50) was 0.291 µM [rising, full curve].
